In US20260108547A1, “LEVERAGING L-FUCOSE-MEDIATED SIGNALING TO INDUCE MONOCYTE-DERIVED DENDRITIC CELL POLARIZATION” (H. LEE MOFFITT CANCER CENTER AND RESEARCH INSTITUTE, INC., priority 2022, published 2026):

Tests used:
[1] = biological target: HLA-DRB1 (endogenous, human melanoma cell lines) (human); test: lectin pulldown and immunoblot, melanoma cell lysates
[2] = biological target: V5-tagged HLA-DRB1 N48G (human); test: lectin pulldown (AAL agarose) and immunoblot, WM793 lysates
[3] = biological target: V5-tagged HLA-DRB1 T129A (human); test: as above
[4] = biological target: V5-tagged wild-type HLA-DRB1 (human); test: as above
[5] = biological target: V5-tagged wild-type HLA-DRB1 (human); test: V5 immunoprecipitation and blot probed with AAL, WM793 cells

B1: Aleuria aurantia lectin (AAL) (protein, UniProt P18891 2-313, looked up)
chain: PTEFLYTSKIAAISWAATGGRQQRVYFQDLNGKIREAQRGGDNPWTGGSSQNVIGEAKLFSPLAAVTWKSAQGIQIRVYCVNKDNILSEFVYDGSKWITGQLGSVGVKVGSNSKLAALQWGGSESAPPNIRVYYQKSNGSGSSIHEYVWSGKWTAGASFGSTVPGTGIGATAIGPGRLRIYYQATDNKIREHCWDSNSWYVGGFSASASAGVSIAAISWGSTPNIRVYWQKGREELYEAAYGGSWNTPGQIKDASRPTPSLPDTFIAANSSGNIDISVFFQASGVSLQQWQWISGKGWSIGAVVPTGTPAGW
- binding [1]: binds
- binding [2]: no binding
- binding [3]: binds
- binding [4]: binds
- binding [5]: binds

No constants are given. Whether binding was seen depends on the method and setting. For some assays here: Binding calls can cover weak binding; strength is not graded here. For some assays here: In cells and extracts the contact can be indirect.
